Measurements: PubChem BioAssay AID493014 (National Center for Advancing Translational Sciences (NCATS), 2011)
Some of the results follow. Further columns of the screen follow, without active or inactive calls. The list favours compounds with an active or inconclusive main result. Potencies come from curve fits of mixed quality, noted in brackets.

Experiment: qHTS Assay to Find Inhibitors of Chronic Active B-Cell Receptor Signaling
Details: ABC-DLBCL IkBa-CBG/CBR reporter, luminescence ratio (green luciferase fused to IkBa over red control in TMD8 lymphoma cells), 4 h
Outline: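 Compounds up to 46 uM were incubated four hours with TMD8 cells whose green CBG68 luciferase is fused to IkappaBalpha; red CBR luminescence normalised the signal, and concentration-effect curves were fitted to fusion, red and ratio data.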

[1] = measured here: CBR red luminescence, cell number
[2] = measured here: IkBa-CBG green luminescence

For `CCOC(=O)C(C)n1ncn2cccc2c1=O` (stereo not drawn), the AC50 [1] was 5.01 µM [rising, single point].

In the case of `COc1ccc(-c2nc(N)nc(C)c2Oc2ccccc2Br)c(O)c1`, the AC50 [1] is reported as 0.92 µM [falling, full curve].

With `Cc1ccc(S(=O)(=O)N2CCN(CC(=O)N/N=C\c3ccc(O)c(O)c3)CC2)cc1` the AC50 [1] was 35.5 µM [rising, partial curve, poor fit].

With `CC(Oc1ccc(Cl)cc1Cl)c1ccnc2nc(N3CCOCC3)nn12` (stereo not drawn) the AC50 [1] was 15.8 µM [falling, partial curve, poor fit].

In the case of `Cc1cccc(N2CCN(C(=O)c3c(C)nn(Cc4ccccc4Cl)c3C)CC2)c1C`, the AC50 [1] is reported as 18.4 µM [falling, partial curve, poor fit].

In the case of `COc1ccc(N2CCN(CC(=O)NCc3ccccc3)CC2)cc1`, the AC50 [1] is reported as 1.12 µM [falling, partial curve, poor fit].

With `C/C(=N/NC(=O)c1ccncc1)c1ccc(NC(=O)c2ccccc2)cc1` the AC50 [1] was 35.5 µM [falling, single point].

In the case of `COc1c(/C=N/Nc2ccc(C(=O)O)cc2)c(CCN(C)C(C)=O)cc2c1OCO2`, the AC50 [1] is reported as 8.91 µM [falling, partial curve, poor fit].

In the case of `CCNc1nc(-c2cc3ccccc3o2)cs1`, the AC50 [1] is reported as 5.17 µM [falling, full curve, poor fit].

In the case of `COc1ccc(/C=C2\SC(N)=NC2=O)cc1Br`, the AC50 [2] is reported as 11.2 µM [falling, partial curve, poor fit].

In the case of `CCCNC(=O)C1CCN(S(=O)(=O)c2c(C)noc2/C=C\c2ccc(OC)cc2)CC1`, the AC50 [1] is reported as 2.91 µM [falling, partial curve, poor fit].

In the case of `CCOc1ccc(OCc2cccc(C(=O)N3CCCCCC3)c2)cc1`, the AC50 [1] is reported as 11.2 µM [falling, partial curve, poor fit].

With `CCCC(=O)Nc1nc2c(s1)COc1ccccc1-2` the AC50 [1] was 0.447 µM [falling, full curve, poor fit] and the AC50 [2] was 0.708 µM [rising, full curve, poor fit].

With `O=S(=O)(Nc1cc(Sc2cccc3cccnc23)c(O)c2ccccc12)c1ccc(F)cc1` the AC50 [1] was 6.51 µM [falling, single point] and the AC50 [2] was 4.61 µM [falling, single point].

In the case of `COc1ccccc1Nc1nc2ccccc2[nH]1`, the AC50 [1] is reported as 28.2 µM [falling, single point].

For `O=C(NC1=NCCS1)c1ccc(Cl)c(Cl)c1`, the AC50 [1] was 0.631 µM [rising, full curve, poor fit].

In the case of `CCOC(=O)CSc1nnc(-c2ccc([N+](=O)[O-])cc2)o1`, the AC50 [1] is reported as 14.1 µM [rising, single point].

For `Clc1ccc(-c2nc(Cc3ccccc3)no2)cc1`, the AC50 [1] was 7.31 µM [rising, partial curve, poor fit].

In the case of `CCOC(=O)CCn1c(=S)n(CCC(=O)OCC)c2ccccc21`, the AC50 [1] is reported as 0.398 µM [rising, partial curve, poor fit].

In the case of `O=C(Nc1nccs1)c1cccc(NC(=O)c2ccco2)c1`, the AC50 [2] is reported as 3.26 µM [rising, full curve, poor fit].

In the case of `CCCCOc1ccc(Br)cc1/C(C)=N/NC1=NCCN1`, the AC50 [2] is reported as 32.6 µM [falling, partial curve, poor fit].

With `CCS(=O)(=O)Nc1cccc(-c2ccc3nnc(-c4cccnc4)n3n2)c1` the AC50 [1] was 3.55 µM [falling, full curve].

In the case of `O=C(CN1CCN(c2ncccn2)CC1)N1CCc2ccccc21`, the AC50 [1] is reported as 2.31 µM [rising, full curve, poor fit].

In the case of `COc1ccc(/C=N/NC(=S)Nc2ccccc2)cc1`, the AC50 [1] is reported as 5.62 µM [falling, single point] and the AC50 [2] is reported as 5.01 µM [falling, single point].

In the case of `C=C(C)C1Cc2c(C)nn(-c3cccc4cccnc34)c2C1` (stereo not drawn), the AC50 [1] is reported as 1 µM [falling, partial curve, poor fit].

For `CC(=O)Nc1ccc(NC(=O)COC(=O)c2c(C)nn(-c3ccccc3)c2C)cc1`, the AC50 [1] was 20.6 µM [falling, single point].

With `Cc1ccc(CC(=O)c2ccc(Cl)cc2)cc1` the AC50 [1] was 17.8 µM [rising, partial curve, poor fit].

For `O=[N+]([O-])c1ccc(NC(=S)N/C(=N/CS(=O)(=O)c2ccccc2)c2ccccc2)cc1`, the AC50 [1] was 1.41 µM [rising, partial curve, poor fit].

In the case of `Cc1cccc(NC(=S)NN2CCN(C)CC2)c1`, the AC50 [1] is reported as 32.6 µM [rising, single point].

In the case of `CSc1ccc(C(=O)NC2CCSc3ccccc32)cc1` (stereo not drawn), the AC50 [1] is reported as 0.631 µM [falling, full curve, poor fit].

With `Cn1c(=O)c2ncn(CC(=O)Nc3ccc4c5c(cccc35)CC4)c2n(C)c1=O` the AC50 [1] was 4.11 µM [falling, partial curve].

In the case of `COC(=O)c1ccc(Cn2nnc3c(=O)[nH]c(C4CCCN(S(=O)(=O)c5ccccc5Cl)C4)nc32)cc1` (stereo not drawn), the AC50 [1] is reported as 3.55 µM [rising, full curve, poor fit].

For `CCCC1CCC(=NNC(=S)NCCc2ccccc2)CC1` (stereo not drawn), the AC50 [2] was 20 µM [falling, single point].

In the case of `COc1ccc(NC(=O)C(=O)c2cn(CC(=O)N3CCCC3)c3ccccc23)cc1`, the AC50 [1] is reported as 0.794 µM [falling, full curve, poor fit] and the AC50 [2] is reported as 10 µM [falling, partial curve].

With `CC(C)(C)c1ccc(OCC(=O)NCCN2CCCC2)cc1` the AC50 [1] was 7.31 µM [rising, partial curve, poor fit].

With `O=C(Cc1ccccc1)N/N=C/c1ccc(OC(=O)/C=C\c2ccco2)cc1` the AC50 [1] was 29.1 µM [rising, single point].

In the case of `OCCNc1nc2ccccc2nc1NCCO`, the AC50 [1] is reported as 3.98 µM [rising, full curve, poor fit].

With `Cc1cc(NC(=O)CCCC(=O)N(CC(=O)NC2CCCCC2)c2ccccc2)no1` the AC50 [1] was 11.2 µM [falling, partial curve, poor fit].

With `CC1(C)O[C@@H]2[C@H](O1)[C@@H](CO)O[C@H]2n1c(N2CCCCC2)nc2c(N)ncnc21` the AC50 [1] was 29.1 µM [rising, single point].
